Data taken from publication PMC2063170, “A phase I clinical and pharmacokinetic study of the new topoisomerase inhibitor GI147211 given as a 72-h continuous infusion” (British Journal of Cancer, 1998).

System: neutrophils and platelets
Assay: Pharmacodynamics: sigmoid Emax (Hill) fit of % decrease in neutrophils or platelets vs lactone Css
Format: in vivo, patients
Conditions: sigmoid Emax model
From the text: Brrtish Joumal of Cancer(1998) 78(10). 1329-1336 @ 1998 Cancer Research Campaign A phase I clinical and pharmacokinetic study of the new topoisomerase inhibitor G1147211 given as a 72-h continuous infusion L Paz-Aresl*, R Kunkal 2, D DeMarial-3, J Cassidy' 4, M Alden3, P Beranek2, S Kaye', D Littlefield2, D Reilly3, S Depee2, P Wissel2, C Twelves' and P O'Dwyer3 CRC Department of Medical Oncology. University of Glasgow. Westem Infirmary Hospital. Glasgow Gll 6NT. UK; 2Glaxo Wellcome Research. Five Moore Drive. Research Triangle Park. NC 27709. USA; 'Fox Chase Cancer Center. 7701 Burholme Avenue. Philadelphia, PA 19111. USA: 4Thomas Jefferson University. Kimmel Cancer Institute. Bluemle Life Sciences Building. 233 S. 10th Street. Suite 502. Philadelphia. PA 19107. […] This study was designed to determine the maximum tolerated dose of Gl147211 as a 72-h infusion and to describe its pharmacokinetics and pharmacodynamics on this schedule. In a single-arm, rising-dose study in patients with advanced cancer, eight cohorts of three or more patients received 72-h infusions of G1147211 at doses ranging from 0.25 to 2.5 mg m-2 day-'. […] Whole-blood G1147211 lactone, total blood and total concentrations were measured during and over the 12 h following the infusion. […] Extensive phase 11 evaluation of this compound and further phase I trials evaluating more prolonged infusions are ongoing. Keywords: G1147211: GG211: camptothecin analogues: topoisomerase I inhibitor; phase I trial; pharmacokinetics: pharmacodynamics: continuous infusion GI 147211 (7-4 methyl piperazinomethilene)- 10.1 1 -ethylenedioxy - 20-(S camptothecin: Figure 1) is a totally synthetic analogue of camptothecin. a natural product isolated from Camptotheca acuminata (WAall et al. 1966: Emerson et al. 1995). […] The nuclear enzyvme DNA topoisomerase I. x hich relaxes DNA supercoils arising during, replication and gene tran- scription. has been identified as the specific targret of camptothecin (Hsianer and Liu. 1988: Wall and Wani. 1995).

## CC[C@@]1(O)C(=O)OCc2c1cc1n(c2=O)Cc2c-1nc1cc3c(cc1c2CN1CCN(C)CC1)OCCO3 [GI147211, 7-4 methyl piperazinomethilene)-10.1 1-ethylenedioxy - 20-(S camptothecin]
Figure 4A
  Emax, % decrease ANC: 100%
  Hill exponent (gamma), % decrease ANC: 1.213
Figure 4B
  Emax, % decrease platelets: 100%
  Hill exponent (gamma), % decrease platelets: 2.327
